Experimental data: the supplement of paper PMC12819154, “High-throughput peptide-centric local stability assay extends protein–ligand identification to membrane proteins, tissues and bacteria” (Nature Structural & Molecular Biology, 2025)
The list shows a part of the results. Most values lie at the level of the controls, where differences are scatter.

Protein sequences, listed by entry. Tags and fused reporters are not part of them. Lines headed by an entry give the natural chain unless they say otherwise; changes in a name come on top.
UniProt O35343, whole entry: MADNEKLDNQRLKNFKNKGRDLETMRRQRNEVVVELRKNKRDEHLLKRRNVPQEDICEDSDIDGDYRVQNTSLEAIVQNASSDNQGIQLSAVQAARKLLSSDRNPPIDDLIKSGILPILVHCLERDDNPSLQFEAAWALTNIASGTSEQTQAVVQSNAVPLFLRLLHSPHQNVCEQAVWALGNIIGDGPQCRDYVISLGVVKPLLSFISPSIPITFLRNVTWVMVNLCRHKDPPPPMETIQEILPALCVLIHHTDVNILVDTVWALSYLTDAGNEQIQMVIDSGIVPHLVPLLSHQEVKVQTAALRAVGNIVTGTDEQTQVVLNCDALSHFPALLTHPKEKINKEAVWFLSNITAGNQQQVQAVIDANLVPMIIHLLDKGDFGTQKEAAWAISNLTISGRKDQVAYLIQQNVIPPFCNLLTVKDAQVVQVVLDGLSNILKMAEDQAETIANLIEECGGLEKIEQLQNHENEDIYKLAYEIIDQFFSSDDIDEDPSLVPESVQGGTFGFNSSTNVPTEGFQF
UniProt O08807: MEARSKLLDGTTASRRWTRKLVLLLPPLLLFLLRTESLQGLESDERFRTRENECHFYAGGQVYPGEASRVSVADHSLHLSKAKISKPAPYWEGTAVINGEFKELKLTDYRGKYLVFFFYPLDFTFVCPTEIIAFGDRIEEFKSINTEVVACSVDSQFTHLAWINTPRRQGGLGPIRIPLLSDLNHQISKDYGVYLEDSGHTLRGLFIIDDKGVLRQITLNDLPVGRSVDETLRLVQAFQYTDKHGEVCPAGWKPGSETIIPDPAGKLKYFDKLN
UniProt G3X9X1: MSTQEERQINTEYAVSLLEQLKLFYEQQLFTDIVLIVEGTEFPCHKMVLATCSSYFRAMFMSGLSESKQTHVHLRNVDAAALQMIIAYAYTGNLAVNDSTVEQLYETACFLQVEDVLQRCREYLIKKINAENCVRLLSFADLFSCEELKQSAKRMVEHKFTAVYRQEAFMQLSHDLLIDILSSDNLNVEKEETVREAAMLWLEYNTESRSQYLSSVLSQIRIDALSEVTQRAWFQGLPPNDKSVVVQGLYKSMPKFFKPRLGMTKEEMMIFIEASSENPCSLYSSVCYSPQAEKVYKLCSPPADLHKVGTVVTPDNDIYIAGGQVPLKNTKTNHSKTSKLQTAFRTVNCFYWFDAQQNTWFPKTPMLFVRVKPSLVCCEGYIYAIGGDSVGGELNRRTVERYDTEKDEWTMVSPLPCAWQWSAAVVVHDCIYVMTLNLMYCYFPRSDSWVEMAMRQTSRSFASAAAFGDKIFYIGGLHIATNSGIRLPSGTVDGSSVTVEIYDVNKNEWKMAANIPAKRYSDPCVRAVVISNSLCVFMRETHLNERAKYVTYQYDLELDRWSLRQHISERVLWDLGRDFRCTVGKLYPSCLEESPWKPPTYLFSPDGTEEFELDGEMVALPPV
UniProt O35075, whole entry: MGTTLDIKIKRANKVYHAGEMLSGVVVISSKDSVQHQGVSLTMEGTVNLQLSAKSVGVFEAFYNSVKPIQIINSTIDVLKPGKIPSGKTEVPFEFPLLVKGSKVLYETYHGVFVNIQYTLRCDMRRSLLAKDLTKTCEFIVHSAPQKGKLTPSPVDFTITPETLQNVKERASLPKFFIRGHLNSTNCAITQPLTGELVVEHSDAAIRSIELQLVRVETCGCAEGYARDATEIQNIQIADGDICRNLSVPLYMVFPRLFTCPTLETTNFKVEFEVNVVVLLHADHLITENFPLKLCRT

Compound: CN[C@@H]1C[C@H]2O[C@@](C)([C@@H]1OC)n1c3ccccc3c3c4c(c5c6ccccc6n2c5c31)C(=O)NC4 [staurosporine]
Test: log2 fold change of tryptic peptide abundance, ligand vs vehicle (limited proteolysis) (log2 ratio); higher = more trypsin-susceptible (destabilized)
Settings: ligand concentration: 20 uM; sample: mouse liver crude lysate; replicate design: treated separately

Target | log2 fold change
UniProt O35343 (peptide sequence: KLLSSDRNPPIDDLIK, peptide start residue: 97) | 0.278
UniProt O08807 (peptide sequence: QITLNDLPVGR, peptide start residue: 216) | -0.64
UniProt G3X9X1 (peptide sequence: SVVVQGLYK, peptide start residue: 243) | -0.158
UniProt O35075 (peptide sequence: TCEFIVHSAPQK, peptide start residue: 136) | -0.155
